Experimental data: article PMC8795592, “Human Dermcidin Protects Mice Against Hepatic Ischemia-Reperfusion–Induced Local and Remote Inflammatory Injury” (Frontiers in Immunology, 2021)
Residue numbers refer to the chain shown, from its start. Names may count otherwise. Results are given in words; binding and its absence hold for the method and conditions named. Sequences can lack the tags named with a protein.

Tests used:
[1] = biological target: DCD-C34S analog (recombinant human dermcidin residue 20-110 with a Cys to Ser substitution at residue 34, N-terminal 6×His tag) (human) (UniProt P81605); experiment: SDS-PAGE with and without DTT; purified recombinant His-tagged protein run on SDS-PAGE in the presence or absence of the reducing agent dithiothreitol; shows disulfide-linked (covalent) dimers only; both purified
[2] = biological target: recombinant human dermcidin (full-length DCD precursor, residue 20-110) with N-terminal 6×His tag (human) (UniProt P81605); experiment: as above

B1: DCD-C34S analog (recombinant human dermcidin residue 20-110 with a Cys to Ser substitution at residue 34, N-terminal 6×His tag) (natural protein, UniProt P81605 20-110, looked up)
chain: YDPEAASAPGSGNPSHEASAAQKENAGEDPGLARQAPKPRKQRSSLLEKGLDGAKKAVGGLGKLGKDAVEDLESVGKGAVHDVKDVLDSVL
notes: dermcidin (DCD), human, residues 20-110 without the signal leader peptide, with C34S; Made by similar procedures as m1; source: E. coli BL21 (DE3) pLysS, purified to homogeneity; Triton X-114 extraction to remove endotoxins; not shown: His6, N-terminal, kept
Q: With B1 as the binder, how does the binding [1] read?
A: no binding

B2: recombinant human dermcidin (full-length DCD precursor, residue 20-110) with N-terminal 6×His tag (natural protein, UniProt P81605 20-110, looked up)
chain: B1 chain with S15C
notes: dermcidin (DCD), human, residues 20-110, without the N-terminal 19-aa signal leader peptide (residue 1-19); one sentence of the methods says residue 20-100; Without a reducing agent the preparation is a mixture of monomers and disulfide-linked dimers (through Cys34); results and legends print 20-110; also called recombinant DCD; source: E. coli BL21 (DE3) pLysS, purified; Triton X-114 extraction …
Q: With B2 as the binder, how does the binding [2] read?
A: no binding (condition: with DTT)
